Experimental data published in the supplement of paper PMC7661543.
The effect of the compound repeats well; differences between the knockouts mostly do not.

System: BT-20
Experiment: relative cell number vs DMSO control (72 h) (% of DMSO); higher = less growth inhibition (more cells)
Procedure: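 QMAP-Seq: a pool of 5 breast cancer cell lines (ZR-75-1, SKBR3, HCC-38, MDA-MB-231, BT-20), each carrying 12 doxycycline-inducible Cas9 sgRNA perturbations (11 knockouts plus non-targeting sgNT), was treated with compounds for 72 h at four 10-fold doses (10 nM-10 uM or 1 nM-1 uM range). Barcodes were amplified and sequenced, and cell number was interpolated from 293T spike-in standard curves. The result is expressed as % of the median of DMSO wells. Two biological replicates.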

COc1cc2c(Oc3ccc4[nH]c(C)cc4c3F)ncnc2cc1OCCCN1CCCC1 [Cediranib]
Conditions	relative cell number
sgRNA knockout: sgATF3, 10 nM	95.3
sgRNA knockout: sgATF3, 100 nM	104
sgRNA knockout: sgATF3, 1000 nM	101
sgRNA knockout: sgATF3, 10000 nM	28.7
sgRNA knockout: sgATF4, 10 nM	111
sgRNA knockout: sgATF4, 100 nM	103
sgRNA knockout: sgATF4, 1000 nM	104
sgRNA knockout: sgATF4, 10000 nM	25.5
sgRNA knockout: sgATF6, 10 nM	114
sgRNA knockout: sgATF6, 100 nM	111
sgRNA knockout: sgATF6, 1000 nM	91.3
sgRNA knockout: sgATF6, 10000 nM	20.8
sgRNA knockout: sgATG7, 10 nM	103
sgRNA knockout: sgATG7, 100 nM	105
sgRNA knockout: sgATG7, 1000 nM	103
sgRNA knockout: sgATG7, 10000 nM	26.8
sgRNA knockout: sgERN1, 10 nM	104
sgRNA knockout: sgERN1, 100 nM	91.4
sgRNA knockout: sgERN1, 1000 nM	99.9
sgRNA knockout: sgERN1, 10000 nM	22.2
sgRNA knockout: sgHSF1, 10 nM	93
sgRNA knockout: sgHSF1, 100 nM	93.3
sgRNA knockout: sgHSF1, 1000 nM	99.6
sgRNA knockout: sgHSF1, 10000 nM	24.5
sgRNA knockout: sgHSF2, 10 nM	115
sgRNA knockout: sgHSF2, 100 nM	117
sgRNA knockout: sgHSF2, 1000 nM	109
sgRNA knockout: sgHSF2, 10000 nM	28.2
sgRNA knockout: sgKEAP1, 10 nM	101
sgRNA knockout: sgKEAP1, 100 nM	89.8
sgRNA knockout: sgKEAP1, 1000 nM	97.2
sgRNA knockout: sgKEAP1, 10000 nM	28.4
sgRNA knockout: sgNFE2L2, 10 nM	135
sgRNA knockout: sgNFE2L2, 100 nM	117
sgRNA knockout: sgNFE2L2, 1000 nM	112
sgRNA knockout: sgNFE2L2, 10000 nM	25.3
sgRNA knockout: sgSLC35F2, 10 nM	114
sgRNA knockout: sgSLC35F2, 100 nM	106
sgRNA knockout: sgSLC35F2, 1000 nM	98.7
sgRNA knockout: sgSLC35F2, 10000 nM	30.2
sgRNA knockout: sgXBP1, 10 nM	121
sgRNA knockout: sgXBP1, 100 nM	118
sgRNA knockout: sgXBP1, 1000 nM	94.2
sgRNA knockout: sgXBP1, 10000 nM	30.8

CN/C(=N\CCSCc1nc[nH]c1C)NC#N [Cimetidine]
Conditions	relative cell number
sgRNA knockout: sgATF3, 10 nM	103
sgRNA knockout: sgATF3, 100 nM	93.1
sgRNA knockout: sgATF3, 1000 nM	103
sgRNA knockout: sgATF3, 10000 nM	115
sgRNA knockout: sgATF4, 10 nM	112
sgRNA knockout: sgATF4, 100 nM	96.6
sgRNA knockout: sgATF4, 1000 nM	102.7
sgRNA knockout: sgATF4, 10000 nM	113
sgRNA knockout: sgATF6, 10 nM	109
sgRNA knockout: sgATF6, 100 nM	102
sgRNA knockout: sgATF6, 1000 nM	96.4
sgRNA knockout: sgATF6, 10000 nM	116
sgRNA knockout: sgATG7, 10 nM	112
sgRNA knockout: sgATG7, 100 nM	101
sgRNA knockout: sgATG7, 1000 nM	106
sgRNA knockout: sgATG7, 10000 nM	96
sgRNA knockout: sgERN1, 10 nM	104
sgRNA knockout: sgERN1, 100 nM	114
sgRNA knockout: sgERN1, 1000 nM	95.6
sgRNA knockout: sgERN1, 10000 nM	99.8
sgRNA knockout: sgHSF1, 10 nM	114
sgRNA knockout: sgHSF1, 100 nM	110
sgRNA knockout: sgHSF1, 1000 nM	109
sgRNA knockout: sgHSF1, 10000 nM	99.5
sgRNA knockout: sgHSF2, 10 nM	118
sgRNA knockout: sgHSF2, 100 nM	101
sgRNA knockout: sgHSF2, 1000 nM	103
sgRNA knockout: sgHSF2, 10000 nM	113
sgRNA knockout: sgKEAP1, 10 nM	96.5
sgRNA knockout: sgKEAP1, 100 nM	103
sgRNA knockout: sgKEAP1, 1000 nM	102.4
sgRNA knockout: sgKEAP1, 10000 nM	115
sgRNA knockout: sgNFE2L2, 10 nM	119
sgRNA knockout: sgNFE2L2, 100 nM	130
sgRNA knockout: sgNFE2L2, 1000 nM	104
sgRNA knockout: sgNFE2L2, 10000 nM	121
sgRNA knockout: sgSLC35F2, 10 nM	107
sgRNA knockout: sgSLC35F2, 100 nM	101
sgRNA knockout: sgSLC35F2, 1000 nM	102
sgRNA knockout: sgSLC35F2, 10000 nM	116
sgRNA knockout: sgXBP1, 10 nM	105
sgRNA knockout: sgXBP1, 100 nM	103
sgRNA knockout: sgXBP1, 1000 nM	106
sgRNA knockout: sgXBP1, 10000 nM	110

O=P1(N(CCCl)CCCl)NCCCO1 (configuration not stated) [Cyclophosphamide]
Conditions	relative cell number
sgRNA knockout: sgATF3, 10 nM	89.3
sgRNA knockout: sgATF3, 100 nM	106
sgRNA knockout: sgATF3, 1000 nM	100
sgRNA knockout: sgATF3, 10000 nM	99.5
sgRNA knockout: sgATF4, 10 nM	97.1
sgRNA knockout: sgATF4, 100 nM	99.4
sgRNA knockout: sgATF4, 1000 nM	101
sgRNA knockout: sgATF4, 10000 nM	99.7
sgRNA knockout: sgATF6, 10 nM	91.8
sgRNA knockout: sgATF6, 100 nM	98.6
sgRNA knockout: sgATF6, 1000 nM	85.5
sgRNA knockout: sgATF6, 10000 nM	90.3
sgRNA knockout: sgATG7, 10 nM	94.2
sgRNA knockout: sgATG7, 100 nM	91.76
sgRNA knockout: sgATG7, 1000 nM	87.9
sgRNA knockout: sgATG7, 10000 nM	95.7
sgRNA knockout: sgERN1, 10 nM	96.7
sgRNA knockout: sgERN1, 100 nM	90.2
sgRNA knockout: sgERN1, 1000 nM	99.2
sgRNA knockout: sgERN1, 10000 nM	89.5
sgRNA knockout: sgHSF1, 10 nM	96.57
sgRNA knockout: sgHSF1, 100 nM	86.6
sgRNA knockout: sgHSF1, 1000 nM	94.5
sgRNA knockout: sgHSF1, 10000 nM	97.2
sgRNA knockout: sgHSF2, 10 nM	96.4
sgRNA knockout: sgHSF2, 100 nM	99.3
sgRNA knockout: sgHSF2, 1000 nM	87.17
sgRNA knockout: sgHSF2, 10000 nM	93
sgRNA knockout: sgKEAP1, 10 nM	93.4
sgRNA knockout: sgKEAP1, 100 nM	97.8
sgRNA knockout: sgKEAP1, 1000 nM	92.1
sgRNA knockout: sgKEAP1, 10000 nM	90.5
sgRNA knockout: sgNFE2L2, 10 nM	102
sgRNA knockout: sgNFE2L2, 100 nM	99.2
sgRNA knockout: sgNFE2L2, 1000 nM	106
sgRNA knockout: sgNFE2L2, 10000 nM	107
sgRNA knockout: sgSLC35F2, 10 nM	92.1
sgRNA knockout: sgSLC35F2, 100 nM	92.8
sgRNA knockout: sgSLC35F2, 1000 nM	113
sgRNA knockout: sgSLC35F2, 10000 nM	108
sgRNA knockout: sgXBP1, 10 nM	97.9
sgRNA knockout: sgXBP1, 100 nM	93.7
sgRNA knockout: sgXBP1, 1000 nM	109
sgRNA knockout: sgXBP1, 10000 nM	107
